This passage reports Kd results from paper PMC6303327.

Chains of the proteins cited; added tags and fusions are not shown. Chains listed by the source or under a name are the forms on record and can include a tag or linker.
ScRPA S178D (phosphomimetic) (Saccharomyces cerevisiae), one chain, as listed by the source S178D, chain 1 of 3: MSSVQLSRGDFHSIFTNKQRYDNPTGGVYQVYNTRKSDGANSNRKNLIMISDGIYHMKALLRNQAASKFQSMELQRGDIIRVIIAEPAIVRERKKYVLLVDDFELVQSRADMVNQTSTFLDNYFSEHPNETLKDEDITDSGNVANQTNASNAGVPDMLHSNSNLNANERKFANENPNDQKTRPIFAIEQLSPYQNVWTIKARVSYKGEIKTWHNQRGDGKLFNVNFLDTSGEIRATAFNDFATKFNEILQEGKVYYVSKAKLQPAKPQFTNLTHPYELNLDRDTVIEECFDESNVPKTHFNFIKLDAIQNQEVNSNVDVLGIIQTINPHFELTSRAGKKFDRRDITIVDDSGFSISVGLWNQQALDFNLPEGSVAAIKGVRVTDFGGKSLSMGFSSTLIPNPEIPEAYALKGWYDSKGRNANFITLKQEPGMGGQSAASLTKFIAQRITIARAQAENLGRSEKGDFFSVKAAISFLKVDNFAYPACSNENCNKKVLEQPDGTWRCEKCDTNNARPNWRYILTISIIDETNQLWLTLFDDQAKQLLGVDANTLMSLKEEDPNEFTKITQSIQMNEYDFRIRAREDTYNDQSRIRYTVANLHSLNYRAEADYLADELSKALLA

As a reminder, the Kd is the free concentration of one partner at which half of the binding sites on the other are occupied at equilibrium, for simple one-to-one binding.

The exact form of at least one protein or probe is not confirmed.

For the data set, the system named is ScRPA S178D (phosphomimetic) (Saccharomyces cerevisiae). Nature of the data set: FRET titration. Conditions: FRET: reaction buffer not given, 10 nM DNA, recombinant protein, protein details: TEV-cleavable His6 on Rfa1, single-stranded DNA.

For the sequence “TTTTTTTTTTTTTTTTTTTTTTTTTTTTTTTTTTTTTTTTTTTTTTTTTTTTTTTTTTTTTTTTTTTTTTTTTTTTTTTTTTTTTTTTTT [dT90(11-41)]”, for the setting “Hill n 2.1 ± 0.2, substrate assigned from figure text order, internal dyes in backbone, label: Cy5 after nt 10, Cy3 30 nt downstream”, the Kd amounted to 65.5 nM.

For the sequence “TTTTTTTTTTTTTTTTTTTTTTTTTTTTTTTTTTTTTTTTTTTTTTTTTTTTTTTTTTTTTTTTTTTTTTTTTTTTTTTTTTTTTTTTTT [dT90(1-30)]”, the dissociation constant (Kd) (Hill n 1.6 ± 0.2, substrate assigned from figure text order, internal Cy3 in backbone, label: 5' Cy5, Cy3 after nt 29) amounted to 78.6 nM.

With “TTTTTTTTTTTTTTTTTTTTTTTTTTTTTTTTTTTTTTTTTTTTTTTTTTTTTTTTTTTTTTTTTTTTTTTTTTTTTTTTTTTTTTTTTT [dT90(5-35)]”, under “Hill n 1.6 ± 0.2, substrate assigned from figure text order, internal dyes in backbone, label: Cy5 after nt 4, Cy3 30 nt downstream”, the Kd is 58.3 nM.
